Data as given in patent publication US10357486B2, “Treatment of cognitive impairment with PDE4 inhibitor” (Universiteit Maastricht, priority 2013, dated 2019).

Tests used:
[1] = tested on: spatial memory in male C57BL/6NCrl mice; assay: Object Location Task (OLT), 24-hour retention interval; assay type: in vivo; settings: given 3 hours after T1, mean (SEM); for e2, total exploration time during T2: T2 after 24 h
From the text: The objective of this study was to evaluate the cognitive improvement effects of Roflumilast on spatial memory employing Object Location Task (OLT) in male C57BL/6NCrl mice. Roflumilast was compared with data of the already established PDE4 inhibitor Rolipram in the same model.
Maintenance of Animals Twenty-four 7 month-old male C57BL/6NCrl mice (Charles River, L'Arbresle, France) were used (average body weights: 27.6 g). The animals were kept under a 12/12-hour light/dark cycle (lights on from 07.00 pm to 07.00 am) with free access to food and water. All testing was done between 09.00 am and maximally 06.00 pm.
Preparation of Compounds for Administration Both rolipram (Sigma-Aldrich St. Louis, USA; MW 275.34) and roflumilast (Biocrea, Radebeul, Germany; MW 403.21) were dissolved in dimethylsulfoxide (DMSO) and kept at 4 ° C.; this stock solution was used for further dilutions in 0.5% methylcellulose. Each of rolipram and roflumilast is used in form of its free base. All injected solutions consisted of 0.5% methylcellulose with a fixed DMSO percentages (1.2%) (vehicle).
Object Location Task Studies in Rodents For the Object Location Task (OLT), doses of 0.01 mg/kg, 0.03 mg/kg and 0.1 mg/kg of Rolipram or Roflumilast or vehicle were administered subcutaneously (s.c.). Based on previous findings, PDE4 inhibitor single administration was performed 3 hours after the first trial as this has an optimum effect on object memory performance. The injection volume was 5 μl/g.
The OLT apparatus consisted of a circular arena, 40 cm in diameter. Half of the 40 cm transparent polyvinyl chloride wall was covered from the outside with white paper. Two objects were placed symmetrically about 10 cm away from the wall on the separation line, between the transparent and covered side of the arena. Four different sets of objects were available: (1) a cone made of brass (maximal diameter 6 cm and total height 3.8 cm), (2) a transparent glass bottle (diameter 2.7 cm, height 8.5 cm) filled with sand and water, (3) a massive metal cube (2.5 cm×5 cm×7.5 cm) with two holes (diameter 1.5 cm), and (4) a massive aluminum cube with a tapering top (4.5 cm×4.5 cm×8.5 cm).
A testing session comprised two trials of 4 minutes. Before each trial, mice were placed in an empty Makrolon cage (incubation cage) for the same amount of time as the trial (4 min). During the first trial (T1), two identical objects were placed symmetrically about 10 cm away from the wall on the separation line between the transparent and covered side of the arena. After the first exploration period of 4 min, the mouse was put back in its home cage. Mice then received treatment at 3 hours post T1. Subsequently, after a predetermined delay interval (24h), the mouse was placed in the apparatus for the second trial of 4 min (T2). Two identical objects as in T1 were used; one object was placed in the previously used position, whereas the other was placed in a novel position. The novel position of the object could either be a fixed distance towards the front or a fixed distance towards the back of the arena for both objects. The times spent exploring each object during T1 and T2 were recorded manually using a personal computer. All objects and locations were used in a balanced manner to exclude possible object and/or location preferences. To avoid olfactory cues, the objects were thoroughly cleaned with 70% ethanol after each trial. The testing order of conditions was determined randomly.
Statistical Data Analysis The measurements reflected the time spent by the mice in exploring each object during T1 and T2. The time spent in exploring the two identical samples in T1 were represented by ‘a1’ and ‘a2’, respectively. The time spent in exploring the sample and the new object in T2 were represented by ‘a’ and ‘b’, respectively. From these exploration times the following variables were calculated: e1, e2, and d2 (Table 1). The d2 index is a relative measure of discrimination corrected for exploratory activity. […]

[2] = tested on: scopolamine induced memory deficit in male Wistar rats; assay: Object recognition task (ORT), scopolamine induced memory deficit; assay type: in vivo; settings: mean (SEM); for e1 (exploration time T1): 30 min before T1, n 16; for e2 (exploration time T2): 1 h retention
From the text: The objective of this study is to evaluate the efficacious dose range of roflumilast with regard to cognitive improvement effects by using scopolamine induced memory deficit on object memory performance in male Wistar rats. Memory acquisition processes are investigated using the object recognition test (ORT).
Maintenance of Animals: Sixteen 3-4 month old male Wistar rats (Charles River, Sulzfeld, Germany) were used for the study. All animals were housed individually in standard green line Tecniplast IVC cages on stardust bedding. The animals were housed on a reversed 12/12 h light/dark cycle (lights on from 07:00 pm to 07:00 am) and had free access to food and water. The rats were housed and tested in the same room. A radio, playing softly, provided background noise in the room. All testing was performed between 09:00 am and 06:00 pm.
Preparation of Compounds: Drugs were prepared daily, except as indicated otherwise. Roflumilast (Takeda, Konstanz, Germany, MW 403.21) was dissolved in 98% methylcellulose solution (0.5% methylcellulose) and 2% Tween 80. Roflumilast in doses of 0 (vehicle), 0.0001, 0.0003, 0.001, 0.003, 0.01 and 0.03 mg/kg was administered intraperitoneally (ip, injection volume 1 ml/kg). Scopolamine (in form of scopolamine hydrobromide) was dissolved in saline (0.9% NaCl). Scopolamine hydrobromide was administered intraperitoneally at a dose of 0.1 mg/kg (ip, injection volume 1 ml/kg). Scopolamine and roflumilast were administered 30 min before T1.
Object Recognition Task in Rats: The ORT was performed as described elsewhere (Ennaceur and Delaceur, 1988, Behav Brain Res, Vol 31, pp 47-59; Akkerman et al; 2012, Behav Brain Res, Vol 232, pp 335-347). The apparatus consisted of a circular arena, 83 cm in diameter. The back half of the 40 cm high wall was made of grey PVC and the front was made of transparent PVC. Fluorescent red tubes and a light bulb provided a constant illumination of about 20 lux on the floor of the apparatus. The light intensity was equal in the different parts of the apparatus.
Two objects were placed in symmetrical positions at the mid-line between the gray and transparent halves of the arena, about ten centimeters away from wall. Four different sets of objects were available: 1) a standard 1 L brown transparent glass bottle (diameter 10 cm, height 22 cm) filled with water, 2) a metal cube (10.0×5.0×7.5 cm) with two holes (diameter 1.9 cm), 3) a cone consisting of a gray PVC base (maximal diameter 18 cm) with a collar on top made of brass (total height 16 cm), and 4) an aluminium cube with a tapering top (13.0×8.0×8.0 cm). Objects were presented to the animals in a balanced manner to avoid object or place biases. Rats were unable to displace the objects.
A test session comprised two trials, each with durations of 3 min. During the learning trial (T1) the apparatus contains two identical objects (object al and a2). Rats were always introduced into the apparatus with their nose towards the transparent wall segment (i.e. facing outwards to the front of the arena). Subsequently, rats were put back in its home cage for a 1 h interval. After the retention interval, rats were put back into the arena for the […] (T2). In T2, the two objects from T1 were replaced by one identical copy (a3) and a different novel object (b). The times spent in exploring each object during T1 and T2 were recorded manually on a personal computer.
Exploration was defined in the following manner: directing the nose to the object at a distance of no more than 2 cm and/or touching the object with the nose. Sitting on the object was not considered as exploratory behavior. In order to avoid the presence of olfactory cues, the objects were thoroughly cleaned with a 70% ethanol solution before each trial.
Prior to compound testing, the animals were handled for 5 min on 2 consecutive days and allowed to explore the ORT arena, also for 5 min. […]

[3] = roflumilast 0.0001 mg/kg ip + scopolamine 0.1 mg/kg ip
[4] = roflumilast 0.0003 mg/kg ip + scopolamine 0.1 mg/kg ip
[5] = roflumilast 0.001 mg/kg ip + scopolamine 0.1 mg/kg ip
[6] = roflumilast 0.003 mg/kg ip + scopolamine 0.1 mg/kg ip
[7] = roflumilast 0.01 mg/kg ip + scopolamine 0.1 mg/kg ip
[8] = roflumilast 0.03 mg/kg ip + scopolamine 0.1 mg/kg ip
[9] = scopolamine 0.1 mg/kg ip + vehicle

Row | Structure (SMILES) | e2, total exploration time during T2 ([1]; 0.01 mg/kg s.c.) | e1, total exploration time during T1 ([1]; 0.01 mg/kg s.c.) | e2, total exploration time during T2 ([1]; 0.03 mg/kg s.c.) | e1, total exploration time during T1 ([1]; 0.03 mg/kg s.c.) | e2, total exploration time during T2 ([1]; 0.1 mg/kg s.c.) | e1, total exploration time during T1 ([1]; 0.1 mg/kg s.c.) | e1 (exploration time T1) [2, 3] | e2 (exploration time T2) [2, 3] | e1 (exploration time T1) [2, 4] | e2 (exploration time T2) [2, 4] | e1 (exploration time T1) [2, 5] | e2 (exploration time T2) [2, 5] | e1 (exploration time T1) [2, 6] | e2 (exploration time T2) [2, 6] | e1 (exploration time T1) [2, 7] | e2 (exploration time T2) [2, 7] | e1 (exploration time T1) [2, 8] | e2 (exploration time T2) [2, 8] | e1 (exploration time T1) [2, 9] | e2 (exploration time T2) [2, 9]
1 | O=C(Nc1c(Cl)cncc1Cl)c1ccc(OC(F)F)c(OCC2CC2)c1 [roflumilast, N-(3,5-dichloropyridin-4-yl)-3-cyclopropylmethoxy-4-difluoromethoxybenzamide] | 14.13 (1.22) s | 15.95 (1.11) s | 16.13 (1.18) s | 15.62 (1.37) s | 13.73 (1.11) s | 17.51 (1.36) s | 24.18 (1.56) sec | 28.13 (2.17) sec | 19.40 (1.62) sec | 24.10 (1.88) sec | 19.95 (1.38) sec | 22.88 (2.14) sec | 22.38 (1.09) sec | 23.94 (1.28) sec | 22.54 (1.63) sec | 27.20 (1.72) sec | 20.44 (1.64) sec | 26.10 (2.06) sec |  | 
2 | COc1ccc(C2CNC(=O)C2)cc1OC1CCCC1 (centres unmarked) [rolipram] | 12.99 (0.84) s | 15.58 (0.95) s | 13.56 (0.95) s | 15.45 (1.35) s | 12.29 (0.08) s | 15.82 (1.03) s |  |  |  |  |  |  |  |  |  |  |  |  |  | 
3 | CN1[C@@H]2C[C@@H](OC(=O)[C@H](CO)c3ccccc3)C[C@H]1[C@@H]1O[C@@H]12 [scopolamine] |  |  |  |  |  |  |  |  |  |  |  |  |  |  |  |  |  |  | 20.99 (2.17) sec | 25.03 (2.18) sec
